Measurements published in paper PMC3024319.
Where two headings read alike, the source gives them in different places. Results are given in words; binding and its absence hold for the method and conditions named. Binding seen in cells or lysates may run through a third protein. Some entries that bind do so weakly or less than the wild type. Where a sequence is shown, tags or fusion partners need not be part of it.

By UniProt entry, the sequences of proteins in these tests, tags left out.
UniProt Q07157: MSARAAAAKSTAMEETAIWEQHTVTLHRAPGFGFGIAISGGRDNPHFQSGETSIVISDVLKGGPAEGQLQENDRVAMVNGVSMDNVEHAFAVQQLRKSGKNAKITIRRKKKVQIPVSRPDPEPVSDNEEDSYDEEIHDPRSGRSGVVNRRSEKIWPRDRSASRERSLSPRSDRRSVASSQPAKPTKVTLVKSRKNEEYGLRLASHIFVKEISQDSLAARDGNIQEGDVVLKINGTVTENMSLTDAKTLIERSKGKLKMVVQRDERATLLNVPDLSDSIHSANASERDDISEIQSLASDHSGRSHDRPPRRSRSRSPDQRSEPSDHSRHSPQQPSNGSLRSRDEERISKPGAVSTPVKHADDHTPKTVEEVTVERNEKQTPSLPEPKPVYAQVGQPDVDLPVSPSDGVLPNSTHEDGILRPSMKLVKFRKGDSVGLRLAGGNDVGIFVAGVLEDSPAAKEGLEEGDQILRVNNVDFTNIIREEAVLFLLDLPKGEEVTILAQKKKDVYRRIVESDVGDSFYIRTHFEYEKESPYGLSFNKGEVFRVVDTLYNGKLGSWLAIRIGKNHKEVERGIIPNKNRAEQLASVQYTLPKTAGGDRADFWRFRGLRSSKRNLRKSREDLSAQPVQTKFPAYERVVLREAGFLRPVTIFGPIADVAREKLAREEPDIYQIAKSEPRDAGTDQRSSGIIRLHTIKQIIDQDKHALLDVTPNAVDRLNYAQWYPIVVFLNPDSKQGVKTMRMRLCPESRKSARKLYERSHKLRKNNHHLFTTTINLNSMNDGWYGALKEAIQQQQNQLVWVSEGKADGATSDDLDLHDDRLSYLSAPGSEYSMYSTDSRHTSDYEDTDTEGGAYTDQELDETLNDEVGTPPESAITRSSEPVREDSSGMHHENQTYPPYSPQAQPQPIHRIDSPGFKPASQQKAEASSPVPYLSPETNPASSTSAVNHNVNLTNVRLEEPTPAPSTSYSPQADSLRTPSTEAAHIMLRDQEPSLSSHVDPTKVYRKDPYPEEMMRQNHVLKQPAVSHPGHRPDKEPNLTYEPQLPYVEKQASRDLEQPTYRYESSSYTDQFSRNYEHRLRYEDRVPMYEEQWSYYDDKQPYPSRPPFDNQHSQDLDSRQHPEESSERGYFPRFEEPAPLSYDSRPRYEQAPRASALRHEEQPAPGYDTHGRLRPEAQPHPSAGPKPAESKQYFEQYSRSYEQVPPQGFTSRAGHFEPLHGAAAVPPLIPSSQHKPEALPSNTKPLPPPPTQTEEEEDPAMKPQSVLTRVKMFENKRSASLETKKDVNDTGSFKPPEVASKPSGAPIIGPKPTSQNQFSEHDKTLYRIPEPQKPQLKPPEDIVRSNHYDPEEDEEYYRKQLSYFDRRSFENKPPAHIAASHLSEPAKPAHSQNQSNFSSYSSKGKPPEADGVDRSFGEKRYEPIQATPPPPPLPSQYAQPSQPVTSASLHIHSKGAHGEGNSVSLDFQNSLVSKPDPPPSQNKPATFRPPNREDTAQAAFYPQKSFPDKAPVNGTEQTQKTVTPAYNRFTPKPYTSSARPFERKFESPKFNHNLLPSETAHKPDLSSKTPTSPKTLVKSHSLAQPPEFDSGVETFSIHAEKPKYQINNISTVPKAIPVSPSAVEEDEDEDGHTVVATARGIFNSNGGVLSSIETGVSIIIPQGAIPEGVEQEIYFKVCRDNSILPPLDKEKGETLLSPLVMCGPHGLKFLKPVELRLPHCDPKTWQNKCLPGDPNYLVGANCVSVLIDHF

Key:
Assay in all cases: co-IP; whole cell lysates (400 ug total protein) of w-Bves, parental HCE and t-Bves cells precipitated with Flag antibody (Pierce Seize X Protein G Immunoprecipitation Kit); Western blot for Bves (antibody 846) and ZO-1
[1] = target: T1, Flag-tagged full length chicken Bves (w-Bves) (chicken) (UniProt Q9DG23)
T1 sequence: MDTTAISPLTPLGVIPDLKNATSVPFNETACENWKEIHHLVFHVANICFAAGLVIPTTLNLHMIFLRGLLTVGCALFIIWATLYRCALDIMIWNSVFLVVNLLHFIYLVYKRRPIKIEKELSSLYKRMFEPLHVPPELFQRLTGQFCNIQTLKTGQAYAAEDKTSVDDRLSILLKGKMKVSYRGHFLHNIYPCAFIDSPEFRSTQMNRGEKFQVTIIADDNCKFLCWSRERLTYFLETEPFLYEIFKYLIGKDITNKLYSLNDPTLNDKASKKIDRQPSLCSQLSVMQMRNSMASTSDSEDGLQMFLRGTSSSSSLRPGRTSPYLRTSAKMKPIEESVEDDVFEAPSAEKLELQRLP

[2] = target: T2, Flag-tagged chick Bves truncated at aa214 (t-Bves) (chicken) (UniProt Q9DG23)
T2 sequence: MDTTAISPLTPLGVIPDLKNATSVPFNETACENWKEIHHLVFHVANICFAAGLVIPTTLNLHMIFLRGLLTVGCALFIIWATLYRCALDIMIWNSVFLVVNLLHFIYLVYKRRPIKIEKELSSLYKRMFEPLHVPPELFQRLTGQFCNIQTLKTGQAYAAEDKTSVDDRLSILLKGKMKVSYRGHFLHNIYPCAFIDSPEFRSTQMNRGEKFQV

[3] = target: T1, Flag-tagged full length chicken Bves (w-Bves) (chicken); remark: listed apart in the source
[4] = target: T2, Flag-tagged chick Bves truncated at aa214 (t-Bves) (chicken); remark: listed apart in the source

Row | Molecule | binding [1] | binding [2] | binding [3] | binding [4]
1 | ZO-1 (from UniProt Q07157 1-1748) | binds | no binding |  | 
2 | endogenous human Bves (protein, UniProt Q8NE79 1-360) MNYTESSPLRESTAIGFTPELESIIPVPSNKTTCENWREIHHLVFHVANICFAVGLVIPTTLHLHMIFLRGMLTLGCTLYIVWATLYRCALDIMIWNSVFLGVNILHLSYLLYKKRPVKIEKELSGMYRRLFEPLRVPPDLFRRLTGQFCMIQTLKKGQTYAAEDKTSVDDRLSILLKGKMKVSYRGHFLHNIYPCAFIDSPEFRSTQMHKGEKFQVTIIADDNCRFLCWSRERLTYFLESEPFLYEIFRYLIGKDITNKLYSLNDPTLNDKKAKKLEHQLSLCTQISMLEMRNSIASSSDSDDGLHQFLRGTSSMSSLHVSSPHQRASAKMKPIEEGAEDDDDVFEPASPNTLKVHQLP |  |  | binds | binds
